The whole screen tested about 410,000 compounds, of which about 18,000 (4.4%) were called active. Inconclusive results, whose numbers are uncertain, are shown with a selection of clear calls. No stated cut-off is given here; in the data, active means activity change below about -60%; inconclusive means no clear call, values can overlap the other calls; inactive means above about -39%.
Assay: qHTS Assay for inhibitors of the human cytomegalovirus (HCMV)
Settings: HFF cells, HCMV-luciferase reporter, 72 h; at 57.5 µM; active compounds read low
In short: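 After 16 h attachment at 37C, HFF cells received test compound and HCMV-luciferase (1 PFU/cell); reporter luminescence read 72 h later, data normalized against buffer-only and known inhibitor Salinomycin.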
On the % scale 0 is the no-effect control and ±100 the full control effect.

Row | SMILES | activity change, negative = inhibition
1 | CC(C)(C)c1ccc(OCCC(=O)OCC(=O)NC2CC2)cc1 | inconclusive: -40.9%
2 | CCN1C(=O)[C@@H]2[C@@H](c3ccc(-c4ccc(F)cc4)c(OC)c3)N3CCCC[C@@]3(C(=O)OC)[C@@H]2C1=O | inconclusive: -59%
3 | O=C(c1ccco1)N1CCN(C(c2ccccc2)c2nnnn2C2CCCC2)CC1 (centres undefined) | inconclusive: -40.3%
4 | CC(C)Oc1ccc(S(=O)(=O)N2CCCCC2)cc1NC(=O)C1CSC2(C)CCC(=O)N12 (centres undefined) | inconclusive: -52.4%
5 | CCCNC(=O)Nc1nccs1 | inconclusive: -43.6%
6 | O=C(CCSCCc1ccccn1)Nc1ccc(Cl)cc1 | inactive: 6.17%
7 | CC(=O)c1cccc(NC(=O)C(OC(=O)c2ccccc2NS(=O)(=O)c2cccs2)c2ccccc2)c1 (centres undefined) | active: -74.6%
8 | Cc1cccn2c(=O)c3cc(C(=O)NC4CCCCC4)c(=N)n(Cc4ccc(F)cc4)c3nc12 | inactive: -30.2%
9 | CCN(c1ccccc1)S(=O)(=O)c1nnc(NC(=O)C2CCCCC2)s1 | inactive: -11.2%
10 | Fc1ccc(-n2cc(-c3ccccc3)c3c(=S)nc[nH]c32)cc1 | inconclusive: -48.9%
11 | CC(C)Oc1ccc(C(=O)NCC(c2ccc(N(C)C)cc2)N2CCc3ccccc32)cc1 (centres undefined) | inconclusive: -48.5%
12 | O=C(NCc1cccnc1)c1ccc([N+](=O)[O-])o1 | active: -85.1%
13 | COc1ccc(NC(=O)CN2C(=O)NC(c3ccccc3)(c3ccccc3)C2=O)cc1 | inactive: -17.3%
14 | CC(=O)c1c(C)n(-c2ccccc2)c2ccc(OCC(O)CN3CCOCC3)cc12 (centres undefined) | inconclusive: -48.6%
15 | N=c1n(Cc2ccccc2)c2ccccc2n1Cc1ccccc1 | inconclusive: -57.2%
16 | CN1CCN(S(=O)(=O)c2cccc(C(=O)N3CCN(c4ccccc4F)CC3)c2)CC1 | inactive: -6.86%
17 | Cc1ccc(S(=O)(=O)Cc2ccc(C(=O)N3CCCCCC3)o2)cc1 | active: -62.9%
18 | CC(=O)Nc1ccc(NC(=O)/C=C/c2ccc3c(c2)OCO3)cc1 | inconclusive: -58.9%
19 | O=C(CNC(=O)c1ccc(Cl)cc1)OCC(=O)c1ccccc1 | inactive: -31%
20 | Cc1sc2ncnc(N3CCC(C(=O)N(C)CC(=O)Nc4ccccc4Br)CC3)c2c1C | active: -63%
21 | O=C(NCCc1csc(-c2ccc(C(F)(F)F)cc2)n1)C(=O)Nc1ccc(F)c(Cl)c1 | inactive: -16.3%
22 | COC(=O)Cn1c(C(=O)N2CCCC2)cc2c1C[C@H]1CN(C(=O)c3ccccc3)[C@@](Cc3ccc(F)cc3)(C(=O)OC)[C@@H]21 | inconclusive: -58.6%
23 | Cc1ccccc1-n1c(SCC(=O)NC(N)=O)nc2sc(-c3ccccc3)cc2c1=O | active: -71.2%
24 | Cc1cc(C(=O)NNS(=O)(=O)c2ccc(C(C)(C)C)cc2)nn1C(C)(C)C | inactive: 29%
25 | Clc1cccc(CN2CCN(c3ncccn3)CC2)c1Cl | inconclusive: -46.5%
26 | OC(CN1CCOCC1)Cn1c(-c2cccc(Cl)c2)nc2ccccc21 (centres undefined) | active: -102%
27 | CCC(C)(C)n1nnnc1C(c1ccc2ncccc2c1)N1CCN(c2nc3ccccc3s2)CC1 (centres undefined) | inconclusive: -47.2%

Look-ups from the list:
activity change, negative = inhibition with CC(=O)Nc1ccc(NC(=O)/C=C/c2ccc3c(c2)OCO3)cc1 is entered as inconclusive: -58.9%
activity change, negative = inhibition with O=C(CNC(=O)c1ccc(Cl)cc1)OCC(=O)c1ccccc1 is entered as inactive: -31%

(list continues)

Row | SMILES | activity change, negative = inhibition
28 | COC(=O)c1cnn2c3c(c(C)nc12)CCCC3 | inactive: 92.2%
29 | CCc1nn(-c2cc(Oc3cccc4ccccc34)nc(-c3ccccc3)n2)c(N)c1C#N | active: -68%
30 | CN(C)c1ccc(C=c2c3ccccc3n3c2cc(-c2ccc(Cl)cc2)[n+]3C)cc1 | active: -99.2%
31 | Cc1nc(C)c(-c2ccc(SCC(=O)Nc3cccc(Cl)c3C)nn2)s1 | inconclusive: -52.6%
32 | COC(=O)c1c(NC(=O)c2ccccc2N(C)S(=O)(=O)c2ccccc2)sc2c1CCCC2 | inconclusive: -47.4%
33 | Cc1c(C(=O)OCC(=O)Nc2ccccc2OC(F)F)cccc1[N+](=O)[O-] | inconclusive: -46.3%
34 | N#CCCn1cc(C(=O)Nc2ccccc2Br)c(-c2cccs2)n1 | inconclusive: -41.6%
35 | O=C(c1ccc([N+](=O)[O-])s1)N1CCN(c2cccc(Cl)c2)CC1 | inconclusive: -48.1%
36 | Clc1ccc(CSc2nnc(-c3cccnc3)n2Cc2ccco2)c(Cl)c1 | inconclusive: -52.5%
37 | CC(=O)C[C@@H]1OC[C@H](C(C)C)N1S(=O)(=O)c1ccc(C)cc1 | inactive: -21.7%
38 | Cc1ccc(OCC(=O)Nc2ccc(N3CCN(C(=O)c4ccco4)CC3)cc2)c(C)c1 | inconclusive: -44.2%
39 | CCOc1ccc(NCc2nnc(SCc3ccccc3Cl)n2-c2ccccc2)cc1 | inactive: -10.2%
40 | O=C(c1ccc2c(c1)N(Cc1cccc(Cl)c1)C(=O)c1ccccc1S2=O)N1CCC(Cc2ccccc2)CC1 (centres undefined) | inconclusive: -53%
41 | CC1CCCN(CCOCCSc2ccccc2)C1 (centres undefined) | inactive: -39.5%
42 | O=C(CCl)NCCNC(=O)c1cc(OCC(F)(F)F)ccc1OCC(F)(F)F | active: -78%
43 | O=[N+]([O-])c1ccc(NNC(=S)Nc2ccc(F)cc2)cc1 | active: -98.5%
44 | OCCC1CN(Cc2cccc(-c3ccco3)c2)CCN1Cc1ccsc1 (centres undefined) | inactive: -1.6%
45 | O=C(Nc1cccc(S(=O)(=O)N2CCCCC2)c1)C1CC(=O)N(c2ccc3c(c2)OCCO3)C1 (centres undefined) | inactive: -30%
46 | Oc1ccc(Br)cc1-c1ccn[nH]1 | inconclusive: -40%
47 | COc1ccc2ccccc2c1/C=N/NC(=O)c1cccc([N+](=O)[O-])c1 | active: -61.9%
48 | Cc1ccc(C)c(SCC(=O)OC/C(O)=C(\C#N)c2nc3ccccc3[nH]2)c1 | active: -102%
49 | COc1ccc(-c2onc(C)c2C)cc1S(=O)(=O)NCCc1ccccc1 | inconclusive: -56.2%
50 | CS(=O)(=O)c1ncc(Cl)c(C(=O)Nc2ccc3ccccc3c2)n1 | active: -98%
51 | Brc1ccc(/C=N/Nc2nncc(-c3ccccc3)n2)o1 | inconclusive: -44.4%
52 | COc1ccc(OC)c(-n2c(CNC3CCN(Cc4ccccc4)CC3)nc3ccccc3c2=O)c1 | active: -106%
53 | C/C(=N\NC(=O)c1cc(-c2cccs2)nc2ccccc12)c1ccccn1 | active: -101%
54 | CN(C)CCn1c2c(c(SCC(=O)N3CCc4ccccc43)nc1=O)CCCC2 | inactive: -18%

From PubChem BioAssay AID1259415 (National Center for Advancing Translational Sciences (NCATS), 2018)
